Source: patent US20090202980A1
These are yes or no findings as the source states them, for the method shown. For some of these results: In cells and extracts the contact can be indirect. Some results given as binding are weak or reduced against the parent protein; the word gives no strength. Where a sequence is shown, tags or fusion partners need not be part of it. Values belong to the binder of their own block, whether it stands above or below them.

Columns and labels:
[1] = biological target: human islet amyloid polypeptide, full length (fl-hIAPP) (human); assay: pull-down with IAPP fibrils, Western blot
[2] = biological target: T1, amyloid fragment of transthyretin (TTR11); assay: ELISA, immobilized peptide
T1 sequence (peptide): YTIAALLSPYS

[3] = biological target: T2, fibrin peptide 85 (FP13), human fibrin α-chain fragment α148-160 (human); assay: ELISA, immobilized peptide
T2 sequence (peptide): KRLEVDIDIKIRS

[4] = biological target: human amyloid-β peptide Aβ(1-40) (human); assay: ELISA, immobilized peptide
[5] = biological target: T3, laminin α1-chain(2097-2108) amyloid core peptide (LAM12); assay: ELISA, immobilized peptide
T3 sequence (peptide): AASIKVAVSADR

[6] = biological target: human amyloid-β peptide Aβ(1-40) (human); assay: pull-down with Aβ fibrils, Western blot

binding [1]: binds
B1: tPA-F-GST (finger domain of human tPA with C-terminal GST tag) (peptide, UniProt P00750 36-85, looked up, not shown: a dimerising Fc or GST)
chain: SYQVICRDEKTQMIYQQHQSWLRPVLRSNRVEYCWCNSGRAQCHSVPVKS

binding [2]: binds | binding [3]: binds | binding [4]: binds | binding [5]: binds | binding [6]: binds | binding [1]: binds
B2: FXII F-GST (finger domain of human factor XII with C-terminal GST tag) (peptide, not shown: small tags and cut ends; a dimerising Fc or GST)
chain: GAEKCFEPQLLRFFHKNEIWYRTEQAAVARCQCKGPDAHCQRL
